# Test results from patent US20230355678A1, “METHODS FOR IMPROVING T CELL EFFICACY” (IMMATICS US, INC., priority 2022, published 2023).
# At least one compound was matched to its structure with a doubt left.
# Experiments:
# Assay type in all cases: cell-based
# transduced T cells [1] = assay: Response to Ag exposure (cytokine expression, exhaustion); details: Acceptable range ≥Control; Table 5 summary grade
# Excerpt: (§1) On Day 1, the activated CD4/CD8-selected cells were transduced with Lentiviral vectors expressing a target-specific exogenous TCR. On Day 2, the culture media were removed and the transduced cells were fed with fresh media in the absence of Panobinostat, SAHA+IL-21, and AKTi VIII and in the presence of cytokines, for cell expansion. On Day 7-Day 10, cells were harvested and cryopreserved for harvest metrics, phenotypic analysis, and functional studies including Incucyte tumor serial killing assay, cytokine production, and exhaustion analysis. To test the effects of TKi, e.g., dasatinib, on T cell products, dasatinib was added on Day 2 (5 nM) and Day 5 (10 nM) during feeding and expansion.
# transduced T cells [2] = assay: Exhaustion / inhibitory receptor (ICI) marker expression of T cell products
# Experimental: The sustained expression of multiple inhibitory receptors may be the hallmark of exhausted T cells. Common to both CD4+ and CD8+ exhausted T cells may be the surface expression of multiple inhibitory receptors, e.g., 2B4, 4-1BB, CD39, CD69, LAG3, PD-1, TIGIT, and TIM3. Expression of these inhibitory receptors in T cell products prepared by Panobinostat treatment at different time was determined. […] Panobinostat treatment on Day 0 increased % PD-1+ cells in T cell products as compared with other treatments and control.
# CD39 may be considered as a marker for exhausted T cells, e.g., CD8+ T cells, in cancer. CD69 is a membrane-bound, type II C-lectin receptor and may be considered as an early marker of lymphocyte activation due to its rapid appearance on the surface of the plasma membrane after stimulation. […] Dasatinib may have little effect on % of terminally differentiated CD39-positive state (CD39+CD69+) and % of CD69+ state in T cell products.
# Common to both CD4+ and CD8+ exhausted T cells may be the surface expression of multiple inhibitory receptors including 2B4, 4-1BB, CD39, CD69, LAG3, PD-1, TIGIT, and TIM-3.
# transduced T cells [3] = assay: Memory T cell phenotype by flow cytometry
# Experimental: Phenotypes of transduced T cells treated with different HDACi were determined by flow cytometry gated on CD3+CD8+ TCR+ cells. […] No major difference in immune-checkpoint-inhibitor (ICI) marker expression was observed.
# Using Panobinostat as example, phenotypes of T cell products prepared by Panobinostat treatment on Day 0 (activation), Day 1 (transduction), or Day 2 (feeding) were determined.
# as §1
# (§2) On Day 0, thawed and rested CD4/CD8-selected cells were activated in the presence of anti-CD3/anti-CD28 antibodies. On Day 1, the activated CD4/CD8-selected cells were transduced with Lentiviral vectors expressing a target-specific exogenous TCR and exogenous CD8 molecules. On Day 2, the culture media were removed and the transduced cells were fed with fresh media containing cytokines for cell expansion. Dasatinib was added on Day 2 or on Day 5. On Day 7-Day 10, cells were harvested and cryopreserved for harvest metrics, phenotypic analysis, and functional studies including Incucyte tumor serial killing assay, cytokine production, and exhaustion analysis.
# transduced T cells [4] = assay: Transduction efficiency by flow cytometry gated on CD3+CD8+ TCR+ cells; details: Panobinostat 0.5 nM added Day 0 during activation, vs untreated control
# Experimental: Transduction efficiency of transduced T cells treated with different HDACi were determined by flow cytometry gated on CD3+CD8+ TCR+ cells.
# as §1
# as §2, with “On Day 7-Day 10, cells were harvested and cryopreserved for harvest metrics, phenotypic analysis, and functional studies including Incucyte tumor serial killing assay, cytokine production, and exhaustion analysis.” left out
# transduced T cells [5] = assay: Fold expansion and manufacturing metrics of T cell products; set-up: fold expansion: unit of the concentration uncertain
# Experimental: (DMSO low concentration=low volume=0.00001%; vehicle control for Panobinostat at low concentration (1 nM); DMSO high concentration=high volume=1.5%; vehicle control for valproic acid at high concentration (1.5 mM); all except Na butyrate (water) were dissolved in DMSO)
# as §1, §2
# [6] = 1 nM on Day 1 (transduction), vs controls (no HDACi and DMSO), FIG. 7B
# [7] = treatment at day 0 compared with day 0+1, FIG. 15B
smiles,measurement,setting,value
"Cc1[nH]c2ccccc2c1CCNCc1ccc(/C=C/C(=O)NO)cc1 [Panobinostat, panobinostat]","Response to Ag exposure (cytokine expression, exhaustion)",transduced T cells [1],+/=
same,% CD39+CD69+ cells (exhausted cells),"transduced T cells [2]; 1 nM on Day 1 (transduction), vs controls (no HDACi and DMSO), FIG. 8",lower
same,Exhaustion phenotype,"transduced T cells [2]; Acceptable range ≤% of exhausted cells to control, Table 5 summary grade",=
same,difference in inhibitory receptors,"transduced T cells [2]; treatment at Day 0 and at Day 0+Day 1, FIG. 16A",no significant difference
same,% T cells with exhausted (CD39+CD69+) or less exhausted (CD39−CD69−) phenotypes,"transduced T cells [2]; treatment at Day 0 and at Day 0+Day 1, FIG. 16B",little effect
same,"ICI markers (2B4, 4-1BB, CD39, CD69, LAG3, PD-1, TIGIT, TIM3) except PD-1","transduced T cells [2]; treatment at different time (Day 0, Day 1, Day 2), FIG. 14A",mostly unchanged
same,% T cells with less exhausted phenotypes (CD39-CD69-),"transduced T cells [2]; treatment on Day 0, FIG. 14B",tends to increase
same,% PD-1+ cells,"transduced T cells [2]; treatment on Day 0, vs other treatments and control, FIG. 14A",increased
same,% CD62L+CD28+ T cells,"transduced T cells [3]; 1 nM on Day 0 (activation), vs control (no HDACi), FIG. 13",lower
same,% CCR7+ and CD45RA+ cells,transduced T cells [3]; [6],higher
same,% CD45RO+ cells,transduced T cells [3]; [6],lower
same,% CD28+CD62L+ cells (Tcm-like cells),"transduced T cells [3]; 1 nM or 2 nM, FIG. 5",increased
same,Memory Phenotype,"transduced T cells [3]; Acceptable range: Higher % of Tscm, Tcm, lower % of TemRA, improvements in other memory markers (CD62L, CD28, CD27), Table 5 summary grade",+/=
same,"% of Tcm (CD45RA−CCR7+), Teff (CD45−CCD7−), and TemRA (CD45RA+CCR7-)","transduced T cells [3]; Panobinostat 0.5 nM added Day 0 during activation, FIG. 20A",little effect
same,% Tnaive (CD45RA+CCR7+) in T cell products,"transduced T cells [3]; Panobinostat 0.5 nM added Day 0 during activation, vs untreated control, FIG. 20A, 25A",increased
same,"expression of Tnaive and Tcm markers (CD27, CD28, CD62L)","transduced T cells [3]; Panobinostat 0.5 nM added Day 0 during activation, vs untreated control, FIG. 20C",little effect
same,% TemRA in T cell products,"transduced T cells [3]; Panobinostat 0.5 nM added Day 0 during activation, vs untreated control, FIG. 25A",decreased
same,number of Tnaive in T cell products,"transduced T cells [3]; Panobinostat 0.5 nM added Day 0 during activation, vs untreated control, FIG. 25B",increased
same,Ranking of T cell products from the most Tnaive and the least TemRA to the least Tnaive and the most TemRA,"transduced T cells [3]; comparative study, FIG. 25A-B",dasatinib (5 nM) on Day 2 >dasatinib (10 nM) on Day 5 >AKTi VIII >Panobinostat
same,number of Tnaive cells,transduced T cells [3]; [7],more number of Tnaive cells
same,% CD8+ TCR+ T cells (transduction efficiency),"transduced T cells [4]; FIG. 19B, 24B",higher
same,total number of T cell products with CD8+ TCR+ T cells,transduced T cells [4]; FIG. 24C,little effect
same,fold expansion,"transduced T cells [5]; 1 nM without IL-21, added on Day 0 (activation), FIG. 10A",increase
same,fold expansion,"transduced T cells [5]; 2 nM, FIG. 2B",reduced fold expansion
same,"Manufacturing metrics (expansion, viability, yield)","transduced T cells [5]; Acceptable range ≥Control, Table 5 summary grade",=
same,fold expansion of T cell products,"transduced T cells [5]; Panobinostat 0.5 nM added Day 0 during activation, vs untreated control, FIG. 19A, 24A",little effect
same,fold expansion,transduced T cells [5]; [7],slightly better fold expansion
